The supplement of paper PMC10849652
This is one part of the list.

The chains behind the UniProt entries cited, without tags or fusion partners. Where a name states a change or a piece, a line headed by the entry shows the natural chain unless it says otherwise.
UniProt O95782: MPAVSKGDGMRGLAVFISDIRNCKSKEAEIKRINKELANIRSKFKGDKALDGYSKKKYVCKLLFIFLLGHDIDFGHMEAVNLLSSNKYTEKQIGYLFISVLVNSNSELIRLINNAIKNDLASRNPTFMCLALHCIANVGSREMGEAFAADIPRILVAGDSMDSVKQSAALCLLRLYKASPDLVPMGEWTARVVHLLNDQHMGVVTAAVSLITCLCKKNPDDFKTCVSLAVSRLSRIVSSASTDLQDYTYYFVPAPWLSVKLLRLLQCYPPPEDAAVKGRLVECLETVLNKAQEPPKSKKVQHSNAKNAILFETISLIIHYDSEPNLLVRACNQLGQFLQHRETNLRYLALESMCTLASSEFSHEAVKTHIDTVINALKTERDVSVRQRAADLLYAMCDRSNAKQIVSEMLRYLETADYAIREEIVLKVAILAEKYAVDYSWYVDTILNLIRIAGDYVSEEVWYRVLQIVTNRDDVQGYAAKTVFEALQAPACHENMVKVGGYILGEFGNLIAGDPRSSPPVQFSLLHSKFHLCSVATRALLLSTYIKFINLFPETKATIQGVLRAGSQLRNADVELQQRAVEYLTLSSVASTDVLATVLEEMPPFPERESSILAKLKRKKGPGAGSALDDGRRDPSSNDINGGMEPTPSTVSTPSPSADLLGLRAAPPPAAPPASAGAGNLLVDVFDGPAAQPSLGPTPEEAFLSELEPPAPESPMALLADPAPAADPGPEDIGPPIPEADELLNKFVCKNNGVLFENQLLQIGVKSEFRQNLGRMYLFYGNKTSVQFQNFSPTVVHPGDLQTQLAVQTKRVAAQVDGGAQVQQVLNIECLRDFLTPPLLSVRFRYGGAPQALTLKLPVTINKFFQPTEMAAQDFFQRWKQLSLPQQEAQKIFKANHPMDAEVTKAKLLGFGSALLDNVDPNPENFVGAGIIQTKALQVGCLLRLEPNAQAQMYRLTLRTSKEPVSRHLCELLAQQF
UniProt Q8WVL7: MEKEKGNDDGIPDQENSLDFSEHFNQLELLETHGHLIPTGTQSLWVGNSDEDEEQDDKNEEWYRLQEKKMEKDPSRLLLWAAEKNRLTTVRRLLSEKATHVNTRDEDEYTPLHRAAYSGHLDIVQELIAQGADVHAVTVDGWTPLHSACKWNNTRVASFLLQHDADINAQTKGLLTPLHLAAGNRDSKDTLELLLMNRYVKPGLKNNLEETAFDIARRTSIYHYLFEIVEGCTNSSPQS
UniProt Q6UXV4: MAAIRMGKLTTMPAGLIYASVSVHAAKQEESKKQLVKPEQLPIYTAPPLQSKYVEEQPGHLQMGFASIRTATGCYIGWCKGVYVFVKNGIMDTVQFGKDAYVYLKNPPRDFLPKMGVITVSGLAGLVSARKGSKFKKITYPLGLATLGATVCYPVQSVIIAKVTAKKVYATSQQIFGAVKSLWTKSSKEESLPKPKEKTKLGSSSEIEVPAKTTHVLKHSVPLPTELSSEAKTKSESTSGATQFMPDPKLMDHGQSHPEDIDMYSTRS
UniProt Q14155: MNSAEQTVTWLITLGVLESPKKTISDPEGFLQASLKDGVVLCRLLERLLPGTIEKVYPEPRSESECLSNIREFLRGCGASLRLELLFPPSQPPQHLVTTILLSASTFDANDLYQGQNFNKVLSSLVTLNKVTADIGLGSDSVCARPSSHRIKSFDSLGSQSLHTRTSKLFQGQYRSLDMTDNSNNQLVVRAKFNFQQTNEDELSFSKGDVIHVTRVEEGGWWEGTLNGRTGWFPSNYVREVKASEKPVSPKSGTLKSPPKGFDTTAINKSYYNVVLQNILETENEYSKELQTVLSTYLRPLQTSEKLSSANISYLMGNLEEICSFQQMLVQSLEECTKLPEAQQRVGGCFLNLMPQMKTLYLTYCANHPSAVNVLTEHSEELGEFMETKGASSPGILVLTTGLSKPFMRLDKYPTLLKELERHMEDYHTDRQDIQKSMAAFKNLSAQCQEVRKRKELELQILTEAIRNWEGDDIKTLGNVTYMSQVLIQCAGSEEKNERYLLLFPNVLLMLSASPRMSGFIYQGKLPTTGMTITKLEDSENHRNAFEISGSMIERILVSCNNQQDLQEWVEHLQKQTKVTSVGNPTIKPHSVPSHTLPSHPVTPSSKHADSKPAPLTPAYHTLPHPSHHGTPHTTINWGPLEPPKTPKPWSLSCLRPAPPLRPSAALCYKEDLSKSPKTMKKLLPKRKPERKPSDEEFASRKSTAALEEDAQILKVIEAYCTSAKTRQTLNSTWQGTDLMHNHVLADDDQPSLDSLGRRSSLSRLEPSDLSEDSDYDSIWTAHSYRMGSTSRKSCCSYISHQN
UniProt Q96P48: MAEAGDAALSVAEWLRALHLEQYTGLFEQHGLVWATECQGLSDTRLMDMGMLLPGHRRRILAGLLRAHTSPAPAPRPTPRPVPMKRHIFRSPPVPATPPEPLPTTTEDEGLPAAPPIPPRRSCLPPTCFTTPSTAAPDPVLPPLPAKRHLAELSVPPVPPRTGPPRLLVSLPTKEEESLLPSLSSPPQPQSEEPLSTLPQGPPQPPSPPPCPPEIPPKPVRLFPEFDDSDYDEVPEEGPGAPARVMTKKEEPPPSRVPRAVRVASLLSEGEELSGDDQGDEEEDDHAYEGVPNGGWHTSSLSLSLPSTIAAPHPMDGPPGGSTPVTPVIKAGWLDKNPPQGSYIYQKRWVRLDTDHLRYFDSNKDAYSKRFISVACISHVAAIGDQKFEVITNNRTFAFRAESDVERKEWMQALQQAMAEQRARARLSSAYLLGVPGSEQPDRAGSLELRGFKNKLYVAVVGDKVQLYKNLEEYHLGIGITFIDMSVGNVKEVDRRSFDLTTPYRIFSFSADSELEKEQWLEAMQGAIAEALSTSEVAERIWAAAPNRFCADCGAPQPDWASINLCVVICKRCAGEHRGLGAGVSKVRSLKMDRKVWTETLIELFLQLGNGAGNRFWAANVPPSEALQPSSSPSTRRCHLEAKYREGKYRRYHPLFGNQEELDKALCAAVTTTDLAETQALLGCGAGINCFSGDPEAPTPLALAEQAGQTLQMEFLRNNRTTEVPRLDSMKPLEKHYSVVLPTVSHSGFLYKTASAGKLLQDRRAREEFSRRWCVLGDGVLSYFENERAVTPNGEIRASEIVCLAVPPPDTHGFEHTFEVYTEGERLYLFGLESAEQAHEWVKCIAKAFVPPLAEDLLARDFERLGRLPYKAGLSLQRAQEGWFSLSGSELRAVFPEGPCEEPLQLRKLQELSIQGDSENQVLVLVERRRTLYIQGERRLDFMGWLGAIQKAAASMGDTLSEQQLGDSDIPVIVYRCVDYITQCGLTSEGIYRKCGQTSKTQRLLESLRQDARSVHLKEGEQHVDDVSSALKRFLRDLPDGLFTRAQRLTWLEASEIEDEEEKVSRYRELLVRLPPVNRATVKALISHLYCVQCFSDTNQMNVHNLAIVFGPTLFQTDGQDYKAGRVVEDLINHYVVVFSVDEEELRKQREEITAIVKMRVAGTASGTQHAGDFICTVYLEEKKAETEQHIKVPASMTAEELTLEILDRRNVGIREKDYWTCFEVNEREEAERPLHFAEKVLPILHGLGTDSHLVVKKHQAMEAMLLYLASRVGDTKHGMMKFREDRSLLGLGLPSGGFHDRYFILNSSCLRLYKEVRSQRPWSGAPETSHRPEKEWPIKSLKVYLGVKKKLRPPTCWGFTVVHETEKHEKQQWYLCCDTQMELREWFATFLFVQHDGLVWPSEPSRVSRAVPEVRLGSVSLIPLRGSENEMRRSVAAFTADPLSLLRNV
UniProt P12429: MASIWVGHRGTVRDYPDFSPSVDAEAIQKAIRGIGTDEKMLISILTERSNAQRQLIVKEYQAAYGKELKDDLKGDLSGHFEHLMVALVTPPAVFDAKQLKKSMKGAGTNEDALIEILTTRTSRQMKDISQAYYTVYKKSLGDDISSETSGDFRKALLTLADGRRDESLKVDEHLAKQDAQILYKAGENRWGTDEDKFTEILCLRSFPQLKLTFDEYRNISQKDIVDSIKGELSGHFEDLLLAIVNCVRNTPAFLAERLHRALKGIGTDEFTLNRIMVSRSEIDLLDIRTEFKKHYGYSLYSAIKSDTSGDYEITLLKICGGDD
UniProt P02647, whole entry, looked up: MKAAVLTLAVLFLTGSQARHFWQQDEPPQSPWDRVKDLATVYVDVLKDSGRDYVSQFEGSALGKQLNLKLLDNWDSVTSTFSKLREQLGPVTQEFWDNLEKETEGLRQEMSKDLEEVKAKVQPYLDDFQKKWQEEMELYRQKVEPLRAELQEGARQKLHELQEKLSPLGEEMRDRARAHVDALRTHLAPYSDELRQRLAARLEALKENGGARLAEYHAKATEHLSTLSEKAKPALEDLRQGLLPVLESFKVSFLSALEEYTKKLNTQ
UniProt Q0VD83: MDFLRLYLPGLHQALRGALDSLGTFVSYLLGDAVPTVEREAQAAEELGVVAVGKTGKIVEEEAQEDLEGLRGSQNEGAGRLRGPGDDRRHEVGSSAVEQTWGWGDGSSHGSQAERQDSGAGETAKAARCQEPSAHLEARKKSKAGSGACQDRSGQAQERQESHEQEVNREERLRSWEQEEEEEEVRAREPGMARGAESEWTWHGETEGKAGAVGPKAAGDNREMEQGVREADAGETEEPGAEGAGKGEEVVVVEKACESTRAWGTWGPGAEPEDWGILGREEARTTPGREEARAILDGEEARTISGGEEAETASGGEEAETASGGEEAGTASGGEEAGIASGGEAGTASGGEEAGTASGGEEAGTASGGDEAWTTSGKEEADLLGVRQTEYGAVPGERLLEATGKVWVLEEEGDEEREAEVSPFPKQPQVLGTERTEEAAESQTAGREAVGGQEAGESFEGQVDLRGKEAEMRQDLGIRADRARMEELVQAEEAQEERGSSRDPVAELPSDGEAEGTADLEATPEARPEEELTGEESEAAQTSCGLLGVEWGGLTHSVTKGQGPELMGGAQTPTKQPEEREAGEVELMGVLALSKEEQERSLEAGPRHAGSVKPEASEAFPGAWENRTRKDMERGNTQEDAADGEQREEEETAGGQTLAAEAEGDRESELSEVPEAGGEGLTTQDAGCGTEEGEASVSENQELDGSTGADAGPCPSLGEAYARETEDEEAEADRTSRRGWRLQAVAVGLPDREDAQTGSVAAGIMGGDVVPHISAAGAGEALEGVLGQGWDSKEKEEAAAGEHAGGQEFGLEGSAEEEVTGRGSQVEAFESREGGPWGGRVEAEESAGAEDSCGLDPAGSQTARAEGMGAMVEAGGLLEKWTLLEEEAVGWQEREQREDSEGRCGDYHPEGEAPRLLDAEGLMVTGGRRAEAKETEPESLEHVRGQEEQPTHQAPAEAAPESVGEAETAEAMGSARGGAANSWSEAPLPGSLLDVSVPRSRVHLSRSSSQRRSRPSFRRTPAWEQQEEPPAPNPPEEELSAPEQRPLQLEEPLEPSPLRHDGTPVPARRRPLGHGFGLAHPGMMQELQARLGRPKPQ
UniProt Q9HC16: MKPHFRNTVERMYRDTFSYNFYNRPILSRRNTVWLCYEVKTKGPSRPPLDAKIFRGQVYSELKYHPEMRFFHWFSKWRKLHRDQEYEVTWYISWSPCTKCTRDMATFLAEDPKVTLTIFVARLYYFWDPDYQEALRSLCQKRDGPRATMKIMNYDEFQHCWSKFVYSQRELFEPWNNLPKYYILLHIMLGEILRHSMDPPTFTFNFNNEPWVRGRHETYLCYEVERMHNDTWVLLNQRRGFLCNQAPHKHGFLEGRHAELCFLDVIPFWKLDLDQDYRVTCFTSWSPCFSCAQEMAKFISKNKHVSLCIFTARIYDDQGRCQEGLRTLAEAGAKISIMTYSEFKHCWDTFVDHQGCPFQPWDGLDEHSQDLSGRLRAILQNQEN
UniProt Q96GX9: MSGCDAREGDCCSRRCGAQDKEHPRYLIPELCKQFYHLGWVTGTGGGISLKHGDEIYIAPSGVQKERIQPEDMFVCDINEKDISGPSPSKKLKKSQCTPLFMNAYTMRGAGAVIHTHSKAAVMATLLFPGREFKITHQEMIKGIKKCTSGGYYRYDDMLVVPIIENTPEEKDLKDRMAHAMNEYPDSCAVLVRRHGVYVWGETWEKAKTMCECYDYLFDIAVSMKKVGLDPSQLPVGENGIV
UniProt Q9H0R1: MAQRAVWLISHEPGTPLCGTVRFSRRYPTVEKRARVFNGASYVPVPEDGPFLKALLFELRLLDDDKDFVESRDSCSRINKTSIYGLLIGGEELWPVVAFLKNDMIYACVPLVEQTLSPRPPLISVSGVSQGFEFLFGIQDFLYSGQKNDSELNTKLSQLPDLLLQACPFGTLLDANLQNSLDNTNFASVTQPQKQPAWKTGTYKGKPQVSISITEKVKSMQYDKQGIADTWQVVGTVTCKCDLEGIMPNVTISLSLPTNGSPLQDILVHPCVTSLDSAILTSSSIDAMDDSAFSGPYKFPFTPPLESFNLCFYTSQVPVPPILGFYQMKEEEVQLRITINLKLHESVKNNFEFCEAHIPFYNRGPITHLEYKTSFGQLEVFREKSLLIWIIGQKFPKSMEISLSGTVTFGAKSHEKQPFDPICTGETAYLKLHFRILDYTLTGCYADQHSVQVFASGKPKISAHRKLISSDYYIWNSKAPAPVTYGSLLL

compound: COc1cc2ncnc(Nc3ccc(F)c(Cl)c3)c2cc1OCCCN1CCOCC1 [gefitinib]; test: log2 fold change, soluble protein after heating vs DMSO (PISA); higher = thermal stabilisation; K562 cells, 10 uM, 30 min; active = over 0.2 and 3.5 SD of the protein, either way, in both replicates (recomputed)
Summary of the method: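 K562 cells (2×10^6 cells/mL) were treated with 10 μM compound for 30 min, and aliquots were heated for 3 min over 48°C-58°C. Pooled aliquots were extracted in PBS with 0.5% NP-40 at 4°C, and the supernatant after 21,000xg for 90 min was measured by TMTpro 16plex LC-MS/MS with channel sums equalised. Reported thermal stability, relative to control samples and from duplicates, is a log2 fold change.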

log2 fold change, inactive:
AP2B1 isoform 2 (UniProt P63010) 0.01
ANTKMT (UniProt Q9BQD7) 0.078
ANKMY2 (UniProt Q8IV38) 0.016
AP4B1 (UniProt Q9Y6B7) 0.069
AP2A1 (UniProt O95782) 0.025
ANK1 isoform 14 (UniProt P16157) 0.156
ARHGAP1 (UniProt Q07960) 0.005
ANKRD13A (UniProt Q8IZ07) 0.035
ANKRD49 (UniProt Q8WVL7) -0.009
APOOL (UniProt Q6UXV4) 0.003
ARID1A (UniProt O14497) 0.047
ARFGEF2 (UniProt Q9Y6D5) 0.01
ARHGEF7 isoform 5 (UniProt Q14155) 0.088
ARAP1 (UniProt Q96P48) 0.132
ANXA3 (UniProt P12429) -0.006
ARFGAP3 (UniProt Q9NP61) -0.018
APOA1 (UniProt P02647) 0.029
APMAP (UniProt Q9HDC9) 0.005
APOBR (UniProt Q0VD83) 0.024
APOBEC3G (UniProt Q9HC16) -0.074
AP1B1 (UniProt Q10567) 0.023
APIP (UniProt Q96GX9) 0.011
AP5M1 (UniProt Q9H0R1) -0.003

2 entries drawn at random from those above:
log2 fold change, inactive:
APOBR (UniProt Q0VD83) 0.024
ARHGAP1 (UniProt Q07960) 0.005
